The values below come from PMC9401491, “The Novel Nucleoside Analogue ProTide NUC-7738 Overcomes Cancer Resistance Mechanisms In Vitro and in a First-In-Human Phase I Clinical Trial” (Clinical Cancer Research, 2021).

Each structure is given as a SMILES string. No dose or concentration is given here for some results.

In this series the test system is NCI-60 cells. Briefly: Correlation of IC50 with HINT1 mRNA in NCI-60 cells. It is filed as cell-based. The note with it: IC50 vs HINT1 mRNA z-score.

With `Nc1ncnc2c1ncn2[C@@H]1O[C@H](CO)C[C@H]1O` [3′-dA, 3′-deoxyadenosine, reference compound], the “correlation between expression of HINT1 and sensitivity (r)” value was found to be 0.19. Take `C[C@H](NP(=O)(OC[C@@H]1C[C@@H](O)[C@H](n2cnc3c(N)ncnc32)O1)Oc1ccccc1)C(=O)OCc1ccccc1` (stereo partly drawn) [NUC-7738, 3′-deoxyadenosine-5′-O-phenyl-(benzyloxy-L-alaninyl)-phosphate]: the “correlation between expression of HINT1 and sensitivity (r)” value is 0.28.
